These are yes or no findings as the source states them, for the method shown. A result given as binding can be weak or reduced; the word gives no strength. For some assays here: Binding seen in cells or lysates may run through a third protein. For some assays here: Sequences can lack the tags named with a protein.
B1: cLUC-AGB1 (protein, UniProt P49177 1-377)
chain: MSVSELKERHAVATETVNNLRDQLRQRRLQLLDTDVARYSAAQGRTRVSFGATDLVCCRTLQGHTGKVYSLDWTPERNRIVSASQDGRLIVWNALTSQKTHAIKLPCAWVMTCAFSPNGQSVACGGLDSVCSIFSLSSTADKDGTVPVSRMLTGHRGYVSCCQYVPNEDAHLITSSGDQTCILWDVTTGLKTSVFGGEFQSGHTADVLSVSISGSNPNWFISGSCDSTARLWDTRAASRAVRTFHGHEGDVNTVKFFPDGYRFGTGSDDGTCRLYDIRTGHQLQVYQPHGDGENGPVTSIAFSVSGRLLFAGYASNNTCYVWDTLLGEVVLDLGLQQDSHRNRISCLGLSADGSALCTGSWDSNLKIWAFGGHRRVI
B2: AGB1 (purified, pull-down) (natural protein, Arabidopsis thaliana, UniProt P49177 1-377, looked up)
chain: B1 chain
notes: AGB1, G protein beta subunit, Arabidopsis thaliana, At4G34460; source: E. coli, purified (glutathione agarose beads)
B3: cLUC-SSP (protein, UniProt Q7XJT7 1-465)
chain: MGCCYSLSSTVDPVQDHTTDASSEPRNGGGEDPPLTKFSFSALKTATNHFSPENIVSDQTSDVVFKGRLQNGGFVAIKRFNNMAWSDPKLFLEEAQRVGKLRHKRLVNLIGYCCDGDKRFLVADFMANDTLAKRLFQRKYQTMDWSIRLRVAYFVAEALDYCNTAGFASYNNLSAYKVLFDEDGDACLSCFGLMKEINNDQITTGSVNPENVIYRFGTVLVNLLSGKQIPPSHAPEMIHRKNVFKLMDPYLKGKFSIDEANVVYKLASQCLKYEGQESPNTKEIVATLETLQTRTEAPSYEVVEMTNQEKDASSSSNLSPLGEACLRMDLASIHSILVLAGYDDDKDIIELSFEEWIQEVKELQDVRRNGDRAFVEQDFKTAIACYSQFVEERSLVYPSVYARRSLSYLFCDEPEKALLDGMHAQGVFPDWPTAFYLQSVALAKLDMNTDSADTLKEAALLEVKK
B4: SSP (purified, pull-down) (protein, UniProt Q7XJT7 1-465)
chain: B3 chain

Key:
[1] = target: YDA-C-Tail-NLuc (Arabidopsis thaliana); assay: split reporter; firefly luciferase complementation imaging; 35S-driven nLUC and cLUC constructs co-infiltrated by agrobacterium GV3101 into N. benthamiana leaves, 3 days at 22 °C, CCD imaging
[2] = target: YDA-N-Tail-nLUC (Arabidopsis thaliana); assay: as above
[3] = target: N-Tail of YODA (purified, pull-down) (Arabidopsis thaliana); assay: pull-down; purified fusion proteins from E. coli incubated with glutathione agarose beads, 25 mM Tris-HCl pH 7.5, 100 mM NaCl, 1 mM DTT, 1 hr; seven washes with 0.1% Triton X-100; eluted with 15 mM GSH; immunoblot; both purified
[4] = target: C-Tail of YODA (purified, pull-down) (Arabidopsis thaliana); assay: as above

| Binder | binding [1] | binding [2] | binding [3] | binding [4] |
| --- | --- | --- | --- | --- |
| B1 | binds | binds |  |  |
| B2 |  |  | binds | binds |
| B3 | binds weakly | binds |  |  |
| B4 |  |  | binds | binds |
